# Assays:
# P. falciparum Dd2 = assay: P. falciparum growth inhibition assay, [3H] hypoxanthine incorporation, Dd2 line; type: cell-based; conditions: Plasmodium falciparum, DD2, read-out: P. falciparum IC50 Dd2
# [1] = system: asexual-stage P. falciparum; assay: P. falciparum asexual-stage growth inhibition, line not specified or both lines; type: cell-based; conditions: Plasmodium falciparum, in Homo sapiens, read-out: P. falciparum IC90
# [2] = system: T. b. brucei 427 bloodstream trypanosomes; assay: T. b. brucei growth inhibition assay; type: cell-based; conditions: Trypanosoma brucei, 48 h, read-out: T. b. brucei IC50
# [3] = system: Neonatal foreskin fibroblast (NFF) cells; assay: NFF cytotoxicity assay; type: cell-based; conditions: Homo sapiens, 72 h, read-out: Mammalian cell IC50 NFF
# HEK293 cells = assay: HEK293 cytotoxicity assay; type: cell-based; conditions: Homo sapiens, HEK293, 48 h, read-out: Mammalian cell IC50 HEK 293
# early stage gametocytes = conditions: read-out: Early stage gametocytes IC50; ref Trenholme et al., 2014; cited from earlier work
smiles,measurement,setting,value
"O=C(CCCCCCC(=O)Nc1ccccc1)NO [Vorinostat, suberoylanilide hydroxamic acid]",IC50,P. falciparum Dd2,190 nM
same,IC90,[1],240 nM
same,IC50,[2],9.03 µM
same,IC50,[3],5.5 µM
same,IC50,HEK293 cells,5.17 µM
same,IC50,early stage gametocytes,1410 nM

# From PMC4506969 (International Journal for Parasitology: Drugs and Drug …, 2015)
